Assay results from the supplement of paper PMC8728848.
The other results are listed elsewhere or left out.

Assays:
Assay in all cases: glycan array binding signal (z-score within array); higher = stronger binding
Conditions in all cases: glycan notation: IUPAC condensed, linker removed
[1] = biological target: Neu5Ac(a2-3)Gal(b1-3)GalNAc
Outline: (§1)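 Arrays were curated from the Consortium for Functional Glycomics database, 3228 in total, and kept only where the protein sequence was available. Binding is expressed as a within-array Z-score. This score was averaged across arrays of the same protein sequence at different concentrations or buffers and across linkers, and negative values can be read as non-binding.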

[2] = biological target: Neu5Ac(a2-3)Gal(b1-3)GalNAc(b1-3)Gal(a1-4)Gal(b1-4)Glc
Outline: as §1

[3] = biological target: Neu5Ac(a2-3)Gal(b1-3)GalNAc(b1-4)Gal(b1-4)Glc
Outline: as §1

[4] = biological target: Neu5Ac(a2-3)Gal(b1-3)GalNAc(b1-4)[Neu5Ac(a2-3)]Gal(b1-4)Glc
Outline: as §1

[5] = biological target: Neu5Ac(a2-3)Gal(b1-3)GalNAc(b1-4)[Neu5Ac(a2-8)Neu5Ac(a2-3)]Gal(b1-4)Glc
Outline: as §1

[6] = biological target: Neu5Ac(a2-3)Gal(b1-3)GalNAc6S
Outline: as §1

[7] = biological target: Neu5Ac(a2-3)Gal(b1-3)GlcNAc
Outline: as §1

[8] = biological target: Neu5Ac(a2-3)Gal(b1-3)GlcNAc(b1-2)Man
Outline: as §1

[9] = biological target: Neu5Ac(a2-3)Gal(b1-3)GlcNAc(b1-2)Man(a1-3)[GlcNAc(b1-4)][Neu5Ac(a2-3)Gal(b1-3)GlcNAc(b1-2)Man(a1-6)]Man(b1-4)GlcNAc(b1-4)GlcNAc
Outline: as §1

[10] = biological target: Neu5Ac(a2-3)Gal(b1-3)GlcNAc(b1-2)Man(a1-3)[Neu5Ac(a2-3)Gal(b1-3)GlcNAc(b1-2)Man(a1-6)]Man(b1-4)GlcNAc(b1-4)GlcNAc
Outline: as §1

[11] = biological target: Neu5Ac(a2-3)Gal(b1-3)GlcNAc(b1-2)[Neu5Ac(a2-3)Gal(b1-3)GlcNAc(b1-4)]Man(a1-6)[Neu5Ac(a2-3)Gal(b1-3)GlcNAc(b1-2)Man(a1-3)]Man(b1-4)GlcNAc(b1-4)GlcNAc
Outline: as §1

[12] = biological target: Neu5Ac(a2-3)Gal(b1-3)GlcNAc(b1-3)Gal(b1-3)GlcNAc
Outline: as §1

[13] = biological target: Neu5Ac(a2-3)Gal(b1-3)GlcNAc(b1-3)Gal(b1-4)GlcNAc
Outline: as §1

[14] = biological target: Neu5Ac(a2-3)Gal(b1-3)GlcNAc(b1-3)GalNAc
Outline: as §1

[15] = biological target: Neu5Ac(a2-3)Gal(b1-3)GlcNAc(b1-6)GalNAc
Outline: as §1

[16] = biological target: Neu5Ac(a2-3)Gal(b1-3)GlcNAc6S
Outline: as §1

[17] = biological target: Neu5Ac(a2-3)Gal(b1-3)[Fuc(a1-4)]GlcNAc
Outline: as §1

[18] = biological target: Neu5Ac(a2-3)Gal(b1-3)[Fuc(a1-4)]GlcNAc(b1-3)Gal(b1-3)[Fuc(a1-4)]GlcNAc
Outline: as §1

[19] = biological target: Neu5Ac(a2-3)Gal(b1-3)[Fuc(a1-4)]GlcNAc(b1-3)Gal(b1-4)[Fuc(a1-3)]GlcNAc
Outline: as §1

[20] = biological target: Neu5Ac(a2-3)Gal(b1-3)[GlcNAc(b1-6)]GalNAc
Outline: as §1

[21] = biological target: Neu5Ac(a2-3)Gal(b1-3)[Neu5Ac(a2-6)]GalNAc
Outline: as §1

[22] = biological target: Neu5Ac(a2-3)Gal(b1-3)[Neu5Ac(a2-6)]GlcNAc(b1-3)[Fuc(a1-3)[Gal(b1-4)]GlcNAc(b1-6)]Gal(b1-4)Glc
Outline: as §1

[23] = biological target: Neu5Ac(a2-3)Gal(b1-3)]Neu5Ac(a2-3)Gal(b1-4)]GlcNAc
Outline: as §1

Neu5Ac(a2-3)Gal(b1-4)Glc = biological target: Neu5Ac(a2-3)Gal(b1-4)Glc
Outline: as §1

[24] = biological target: Neu5Ac(a2-3)Gal(b1-4)GlcNAc
Outline: as §1

[25] = biological target: Neu5Ac(a2-3)Gal(b1-4)GlcNAc(b1-2)Man
Outline: as §1

[26] = biological target: Neu5Ac(a2-3)Gal(b1-4)GlcNAc(b1-2)Man(a1-3)[GlcNAc(b1-4)][Neu5Ac(a2-3)Gal(b1-4)GlcNAc(b1-2)Man(a1-6)]Man(b1-4)GlcNAc(b1-4)GlcNAc
Outline: as §1

[27] = biological target: Neu5Ac(a2-3)Gal(b1-4)GlcNAc(b1-2)Man(a1-3)[Neu5Ac(a2-3)Gal(b1-4)GlcNAc(b1-2)Man(a1-6)]Man(b1-4)GlcNAc(b1-4)GlcNAc
Outline: as §1

[28] = biological target: Neu5Ac(a2-3)Gal(b1-4)GlcNAc(b1-2)Man(a1-3)[Neu5Ac(a2-3)Gal(b1-4)GlcNAc(b1-2)Man(a1-6)]Man(b1-4)GlcNAc(b1-4)[Fuc(a1-6)]GlcNAc
Outline: as §1

[29] = biological target: Neu5Ac(a2-3)Gal(b1-4)GlcNAc(b1-2)Man(a1-3)[Neu5Ac(a2-6)Gal(b1-4)GlcNAc(b1-2)Man(a1-6)]Man(b1-4)GlcNAc(b1-4)GlcNAc
Outline: as §1

[30] = biological target: Neu5Ac(a2-3)Gal(b1-4)GlcNAc(b1-2)[Neu5Ac(a2-3)Gal(b1-4)GlcNAc(b1-4)]Man(a1-3)[GlcNAc(b1-4)][Neu5Ac(a2-3)Gal(b1-4)GlcNAc(b1-2)[Neu5Ac(a2-3)Gal(b1-4)GlcNAc(b1-6)]Man(a1-6)]Man(b1-4)GlcNAc(b1-4)GlcNAc
Outline: as §1

[31] = biological target: Neu5Ac(a2-3)Gal(b1-4)GlcNAc(b1-2)[Neu5Ac(a2-3)Gal(b1-4)GlcNAc(b1-4)]Man(a1-3)[GlcNAc(b1-4)][Neu5Ac(a2-3)Gal(b1-4)GlcNAc(b1-4)Man(a1-6)]Man(b1-4)GlcNAc(b1-4)GlcNAc
Outline: as §1

[32] = biological target: Neu5Ac(a2-3)Gal(b1-4)GlcNAc(b1-2)[Neu5Ac(a2-3)Gal(b1-4)GlcNAc(b1-6)]Man(a1-6)[Neu5Ac(a2-3)Gal(b1-4)GlcNAc(b1-2)Man(a1-3)][GlcNAc(b1-4)]Man(b1-4)GlcNAc(b1-4)GlcNAc
Outline: as §1

[33] = biological target: Neu5Ac(a2-3)Gal(b1-4)GlcNAc(b1-3)Gal
Outline: as §1

[34] = biological target: Neu5Ac(a2-3)Gal(b1-4)GlcNAc(b1-3)Gal(b1-3)GlcNAc
Outline: as §1

[35] = biological target: Neu5Ac(a2-3)Gal(b1-4)GlcNAc(b1-3)Gal(b1-4)GlcNAc
Outline: as §1

[36] = biological target: Neu5Ac(a2-3)Gal(b1-4)GlcNAc(b1-3)Gal(b1-4)GlcNAc(b1-2)Man(a1-3)[Neu5Ac(a2-3)Gal(b1-4)GlcNAc(b1-3)Gal(b1-4)GlcNAc(b1-2)Man(a1-6)]Man(b1-4)GlcNAc(b1-4)GlcNAc
Outline: as §1

[37] = biological target: Neu5Ac(a2-3)Gal(b1-4)GlcNAc(b1-3)Gal(b1-4)GlcNAc(b1-3)Gal(b1-4)GlcNAc
Outline: as §1

[38] = biological target: Neu5Ac(a2-3)Gal(b1-4)GlcNAc(b1-3)Gal(b1-4)GlcNAc(b1-3)Gal(b1-4)GlcNAc(b1-2)Man(a1-3)[Neu5Ac(a2-3)Gal(b1-4)GlcNAc(b1-3)Gal(b1-4)GlcNAc(b1-3)Gal(b1-4)GlcNAc(b1-2)Man(a1-6)]GalNAc
Outline: as §1

[39] = biological target: Neu5Ac(a2-3)Gal(b1-4)GlcNAc(b1-3)Gal(b1-4)GlcNAc(b1-3)GalNAc
Outline: as §1

[40] = biological target: Neu5Ac(a2-3)Gal(b1-4)GlcNAc(b1-3)Gal(b1-4)GlcNAc(b1-3)[Neu5Ac(a2-3)Gal(b1-4)GlcNAc(b1-3)Gal(b1-4)GlcNAc(b1-6)]GalNAc
Outline: as §1

[41] = biological target: Neu5Ac(a2-3)Gal(b1-4)GlcNAc(b1-3)Gal(b1-4)GlcNAc(b1-6)[Gal(b1-3)]GalNAc
Outline: as §1

[42] = biological target: Neu5Ac(a2-3)Gal(b1-4)GlcNAc(b1-3)Gal(b1-4)[Fuc(a1-3)]GlcNAc
Outline: as §1

[43] = biological target: Neu5Ac(a2-3)Gal(b1-4)GlcNAc(b1-3)GalNAc
Outline: as §1

[44] = biological target: Neu5Ac(a2-3)Gal(b1-4)GlcNAc(b1-3)[Neu5Ac(a2-3)Gal(b1-4)GlcNAc(b1-6)]GalNAc
Outline: as §1

B1: EUL D1A first (Oryza sativa) (protein)
chain: MFGFGHHHNQAPAAPSDPNQIFKIFCRANENYCLTVRDSAVVLAPVNPKDEHQHWFKDMRFSTKVKDGEGMPAFALVNKATGLAVKHSLGQSHPVKLVPFNPEYEDASVLWTESKDVGKGFRCIRMVNNTRLNLDAFHGDKDHGGVRDGTTVVLWEWCKGDNQSWKILPWGPEAHSSSPGAATILEQKLISEEDLNSAVDHHHHHH
[1]
  glycan array binding signal (z-score): 0.04
[2]
  glycan array binding signal (z-score): -0.673
[3]
  glycan array binding signal (z-score): -1.62
[4]
  glycan array binding signal (z-score): -0.536
[5]
  glycan array binding signal (z-score): 0.621
[6]
  glycan array binding signal (z-score): 0.472
[7]
  glycan array binding signal (z-score): 0.945
[8]
  glycan array binding signal (z-score): 0.094
[9]
  glycan array binding signal (z-score): -0.059
[10]
  glycan array binding signal (z-score): 0.053
[11]
  glycan array binding signal (z-score): 0.913
[12]
  glycan array binding signal (z-score): 0.506
[13]
  glycan array binding signal (z-score): -0.002
[14]
  glycan array binding signal (z-score): -1.42
[15]
  glycan array binding signal (z-score): -0.676
[16]
  glycan array binding signal (z-score): -0.173
[17]
  glycan array binding signal (z-score): -0.746
[18]
  glycan array binding signal (z-score): 0.057
[19]
  glycan array binding signal (z-score): 0.634
[20]
  glycan array binding signal (z-score): 0.405
[21]
  glycan array binding signal (z-score): 0.105
[22]
  glycan array binding signal (z-score): 0.5
[23]
  glycan array binding signal (z-score): -0.666
Neu5Ac(a2-3)Gal(b1-4)Glc
  glycan array binding signal (z-score): 1.98
[24]
  glycan array binding signal (z-score): -0.816
[25]
  glycan array binding signal (z-score): -0.15
[26]
  glycan array binding signal (z-score): 0.47
[27]
  glycan array binding signal (z-score): 0.155
[28]
  glycan array binding signal (z-score): 0.115
[29]
  glycan array binding signal (z-score): -0.281
[30]
  glycan array binding signal (z-score): -1.13
[31]
  glycan array binding signal (z-score): -0.352
[32]
  glycan array binding signal (z-score): -0.447
[33]
  glycan array binding signal (z-score): 0.293
[34]
  glycan array binding signal (z-score): -0.65
[35]
  glycan array binding signal (z-score): -1.11
[36]
  glycan array binding signal (z-score): -0.845
[37]
  glycan array binding signal (z-score): -1.75
[38]
  glycan array binding signal (z-score): 1.04
[39]
  glycan array binding signal (z-score): 0.43
[40]
  glycan array binding signal (z-score): -1.42
[41]
  glycan array binding signal (z-score): 0.24
[42]
  glycan array binding signal (z-score): -0.958
[43]
  glycan array binding signal (z-score): 0.212
[44]
  glycan array binding signal (z-score): 0.425
